Laboratory results reported in publication PMC5513735.
These are yes or no findings as the source states them, for the method shown. Some results given as binding are weak or reduced against the parent protein; the word gives no strength.

T1: hypothetical protein SP_1876 (Streptococcus pneumoniae) (UniProt Q97NX5)
T1 sequence: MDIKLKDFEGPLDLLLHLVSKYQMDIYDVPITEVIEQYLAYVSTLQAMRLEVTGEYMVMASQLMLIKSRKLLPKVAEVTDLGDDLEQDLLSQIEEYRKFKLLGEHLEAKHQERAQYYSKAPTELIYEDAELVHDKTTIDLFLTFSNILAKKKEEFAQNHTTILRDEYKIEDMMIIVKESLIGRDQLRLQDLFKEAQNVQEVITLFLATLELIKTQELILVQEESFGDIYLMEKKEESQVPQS

B1: SP_1151, Exonuclease (protein, UniProt Q97QQ0 1-1091)
chain: MKLLYTDIRTSLTEILTREAEELVAAGKRVFYIAPNSLSFEKERAVLEYLSQQASFSITVTRFAQMARYLVLNDLPAKTTLDDIGLGLAFYKCLAELDPKDLRVYGAIKQDPQLIQQLIELYHEMTKSQMSFLDLENLTDEDKRADLLLIFEKVTAYLNQGQLAQESQLSHLIEAIENDKVSSDFNQIALVIDGFTRFSAEEERVVDLLHGKGVEIVIGAYASKKAYTSPFSEGNLYQASVKFLHHLASKYQTPAQDCSQTHEKMDSFDKASRLLESSYDFSELALDVDEKDRENLQIWSCLTQKEELELVARSIRQKLHENSDLSYKHFRILLGDVASYQLSLKTIFDQYQIPFYLGRSEAMAHHPLTQFVESILALKRYRFRQEDLINLLRTDLYTDLSQSDIDAFEQYIRYLGINGLPAFQQTFTKSHHGKFNLERLNVLRLRILAPLETLFASRKQKAEKLLQKWSVFLKEGAVTKQLQDLTTTLEAVEQERQAEVWKAFCHVLEQFATVFAGSQVSLEDFLALLHSGMSLSQYRTIPATVDTVLVQSYDLIAPLTADFVYAIGLTQDNLPKISQNTSLLTDEERQNLNQATEEGVQLLIASSENLKKNRYTMLSLVNSARKQLFLSAPSLFNESESKESAYLQELIHFGFRRREKRMNHKGLSKEDMGSYHSLLSSLVAYHQQGEMSDTEQDLTFVKVLSRVIGKKLDQQGLENPAIPTSPSSKTLAKDTLQALYPAKQEFYLSTSGLTEFYRNEYSYFLRYVLGLQEELRLHPDARSHGNFLHRIFERALQLPNEDSFDQRLEQAIQETSQEREFEAIYQESLEAQFTKEVLLDVARTTGHILRHNPAIETIKEEANFGGKDQAFIQLDNGRSVFVRGKVDRIDRLKANGAIGVVDYKSSLTQFQFPHFFNGLNSQLPTYLAALKREGEQNFFGAMYLEMAEPVQSLMAVKSLAGAVVEASKSMKYQGLFLEKESSYLGEFYNKNKANQLTDEEFQLLLDYNAYLYKKAAEKILAGRFAINPYTENGRSIAPYVQQHQAITGFEANYHLGQARFLEKLDLADGKRLVGEKLKQAWLEKIREELNR
B2: SP_0437, Glutamyl-tRNA(Gln) amidotransferase (protein, UniProt Q97SE6 1-488)
chain: MTFNNKTIEELHNLLVSKEISATELTQATLENIKSREEALNSFVTIAEEQALVQAKAIDEAGIDADNVLSGIPLAVKDNISTDGILTTAASKMLYNYEPIFDATAVANAKTKGMIVVGKTNMDEFAMGGSGETSHYGATKNAWNHSKVPGGSSSGSAAAVASGQVRLSLGSDTGGSIRQPAAFNGIVGLKPTYGTVSRFGLIAFGSSLDQIGPFAPTVKENALLLNAIASEDAKDSTSAPVRIADFTSKIGQDIKGMKIALPKEYLGEGIDPEVKETILNAAKHFEKLGAIVEEVSLPHSKYGVAVYYIIASSEASSNLQRFDGIRYGYRAEDATNLDEIYVNSRSQGFGEEVKRRIMLGTFSLSSGYYDAYYKKAGQVRTLIIQDFEKVFADYDLILGPTAPSVAYDLDSLNHDPVAMYLADLLTIPVNLAGLPGISIPAGFSQGLPVGLQLIGPKYSEETIYQAAAAFEATTDYHKQQPVIFGGDN
B3: SP_1875, Segregation and condensation protein B (protein, UniProt Q97NX6 1-189)
chain: MSTLAKIEALLFVAGEDGIRVRQLAELLSLPPTGIQQSLGKLAQKYEKDPDSSLALIETSGAYRLVTKPQFAEILKEYSKAPINQSLSRAALETLSIIAYKQPITRIEIDAIRGVNSSGALAKLQAFDLIKEDGKKEVLGRPNLYVTTDYFLDYMGINHLEELPVIDELEIQAQESQLFGERIEEDENQ
B4: SP_0701, Orotidine 5′-phosphate decarboxylase (protein, UniProt P0CB75 1-233)
chain: MREHRPIIALDFPSFEAVKEFLALFPAEESLYLKVGMELYYAAGPEIVSYLKGLGHSVFLDLKLHDIPNTVKSAMKILSQLGVDMTNVHAAGGVEMMKAAREGLGSQAKLIAVTQLTSTSEAQMQEFQNIQTSLQESVIHYAKKTAEAGLDGVVCSAQEVQVIKQATNPDFICLTPGIRPAGVAVGDQKRVMTPADAYQIGSDYIVVGRPITQAEDPVAAYHAIKDEWTQDWN
B5: SP_1907, Chaperonin (protein, UniProt Q97NV3 1-94)
chain: MLKPLGDRVVLKIEEKEQTVGGFVLAGSAQEKTKTAQVVATGQGVRTLNGDLVAPSVKTGDRVLVEAHAGLDVKDGDEKYIIVGEANILAIIEE

Biological target: T1, hypothetical protein SP_1876 (Streptococcus pneumoniae)
Test: two-hybrid; yeast two-hybrid screens of S. pneumoniae ORFs: Gal4-based (individual baits mated with a pooled prey library, selection on SD -Leu -Trp -His with 0.1 mM 3-AT, 30°C) and LexA-based (hypothetical-protein BD clones against an AD array, two-phased pooled mating); which system found a given pair is not given

Binder	binding
B1	binds
B2	binds
B3	binds
B4	binds
B5	binds
